Assay results published in US20110200525A1 (published 2011).
Positions count from the first letter of the chain named. These are yes or no findings as the source states them, for the method shown. For part of these data: In cells and extracts the contact can be indirect. Some entries that bind do so weakly or less than the wild type.

B1: VHH122 (VHH)
VHH: EVQLQESGGGLVQAGDSLRLSCLVSGRSFNSYTMGWFRQAPGKEREFVAAILWSGPTTYYADSVKGRFTISRDNAKNTVYLQMNSLKPEDTAVYYCAAALGVLVLAPGNVYSYWGQGTQVTVSS
notes: polyhistidine and myc tagged; also called VH122; not shown: C-terminal 6-His and myc tags from pHEN1-H6
B2: VHH102 (VHH, not shown: small tags and cut ends)
VHH: EVKLQESGGGLVQSGGSLRLSCIASGSTVSGNTMGWYRQAPGKQRELVAVISSVGVSNVAQSVKGRFAISRDNAKNTVYLQMSSLKPEDTAVYYCNALGTGRANWGQGTQVTVSS
B3: VHH110 (VHH, not shown: small tags and cut ends)
VHH: EVKLQESGGGLVQSGGSLRLSCIASGSTVSDNTMGWYRQAPGKQRELVAVISSVGVTNVAQSVKGRFTISRDNAKNTVTVYLQMSSLKPEDTAVYYCNALGTGRGNWGQGTQVTVSS
B4: VHH104 (VHH, not shown: small tags and cut ends)
VHH: B3 VHH with K3Q, E6Q
B5: VHH139 (VHH, not shown: small tags and cut ends)
VHH: EVKLQQSGGGLVQPGKSLRLSCEASARAAGVGWFRQAPGLEREYVGSFLWNTGRTHYPESLKDRFTISKDNAKNTVYLQINSLKPEDTAIYYCAAVQLPIRTSLTEPATYTFWGQGTQVTVAS
B6: VHH101 (VHH, not shown: small tags and cut ends)
VHH: B5 VHH with Q6E

These binders were tested against EGFR ECD (wild type) (UniProt P00533) (assay: SPR on immobilized EGFR ECD).

binding | Binder
binds | B1

What follows are binders tested against T1, human EGFR wild type (human, UniProt P00533 25-1210) (assay: pull-down from NR6W lysate by His-tagged VHH on a nickel-chelate plate, Western blot with anti-EGFR mAb H11).
T1 construct: whole, on cells; also called EGFR on NR6W cells; EGFR in NR6W lysate

binding | Binder
binds | B2
binds | B3
binds | B4
binds | B5
binds | B6

What follows are binders tested against T1, human EGFR wild type (assay: plate pulldown from NR6W lysate with VHH on nickel-chelate plate, anti-EGFR (H11) Western blot).

binding | Binder
binds | B2
binds | B3
binds | B4
binds | B5
binds | B6

These binders were tested against EGFR ECD (wild type) (UniProt P00533) (assay: ELISA on immobilized EGFR ECD).

binding | Binder
binds | B1
